Assay results taken from PubChem BioAssay AID602296 (Broad Institute, 2012).
About 190 (9.5%) of roughly 2,000 compounds were called active. Roughly 14% stayed inconclusive and do not appear here.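 Rule for the calls: active = fitted activation curve crossing 40% at a concentration no higher than the sample's top valid tested dose; inconclusive = flat fitted curve at 30% to 70% activation, or poor curve fit; inactive = signal decrease, flat curve within 30%, or the rest.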 The list lacks most of the strong results.

Assay: HSF-1 reporter activators over prolonged exposure, confirmation, cell-based, mouse, luciferase, cherry-pick, dose (AID 602296);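 note: test compounds applied by themselves with no MG132 co-treatment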
Conditions: NIH3T3-HGL HSF-1 response element luciferase, 48 h; at 26 µM (top of the series) unless noted

activation, inactive:
O=C(CCl)N1CCN2C(=O)c3ccccc3C12c1ccc(Cl)cc1 (configuration not stated) 6.48%, Cc1ccc(C)c(Cn2nnc3c(=O)[nH]c(C4CCN(C(=O)c5cccs5)CC4)nc32)c1 -16.5%, Cc1c(N(C)S(=O)(=O)c2cccc(C(=O)NC(C)C)c2)c(=O)n(-c2ccccc2)n1C -8.73%, CC(C)c1ccc(/C=C/C(=O)n2nnc3ccccc32)cc1 -18%, COc1cc(COCC(O)CN2CCN(CCN3C(=O)c4cccc5cccc(c45)C3=O)CC2)cc(OC)c1OC (configuration not stated) -6.7%, O=C(O)c1cnn(-c2nc(-c3cccc([N+](=O)[O-])c3)cs2)c1C(F)(F)F -9.3%, Nn1c(SCC(=O)N2CCOCC2)nnc1C1CC1 -5.21%, Nc1ccccc1Nc1ccc([N+](=O)[O-])cc1[N+](=O)[O-] -1.13%, Cc1c(-c2n[nH]c(=S)n2-c2ccc(C(F)(F)F)cc2)nnn1-c1ccccc1 -5.63%, COc1ccc(-c2nc(Cn3c(SCc4ccc(F)cc4)nc4ccncc43)c(C)o2)cc1OC -16.8%, O=C1C2CCCCC2C(=O)N1Cc1ccccc1 (configuration not stated) -6.54%, N#Cc1ccc(-c2ccc(Cl)cc2)nc1Oc1ccc(F)cc1 -3.7%, O=C(Nc1ccc(S(=O)(=O)N2CCCCC2)cc1)C1CCN(C(=O)c2ccco2)CC1 2.98%, CCCc1nc2oc3cc(OC)ccc3c(=O)c2c(=O)n1CCc1ccccc1 -10.3%, CCOC(=O)C1CCCN(CC(=O)Nc2c(C(=O)OC)[nH]c3ccccc23)C1 (configuration not stated) 0.175%, O=c1oc2cc(O)ccc2cc1S(=O)(=O)c1ccccc1 6.11%, COc1ccccc1CNC(=O)c1csc(Cc2ccc(Cl)cc2)n1 -43.2%, COc1ccc(S(=O)(=O)Nc2cc3c4c(oc3c3ccccc23)CCCC4=O)cc1 -49%, Cc1ccc(S(=O)(=O)NNC(=O)c2cnn(-c3ccc(Cl)cc3)c2C(F)(F)F)cc1 -9.84%, CNC(=O)N(O)C1N(/N=C/c2c(F)cccc2Cl)C(=S)SC1(C)C (configuration not stated) -5.57%, COC(=O)C1=CN(c2ccc(F)cc2)C=C(C(=O)OC)C1c1cccc(Br)c1 -34.7%, COc1ccc(/C(C)=N/NC(=S)NCc2ccco2)cc1 -18.9%, Cc1c(-n2cc(C(=O)c3ccccc3O)cc(C#N)c2=O)c(=O)n(-c2ccccc2)n1C 11.6%, Cc1cc(=O)c2n(Cc3ccccc3Cl)nc[n+]2[nH]1 -3.29%, O=C(Nc1ccc(OCC(F)(F)C(F)F)c(C(F)(F)F)c1)c1ccccc1O -78.6%, Cc1ccc[n+](CC(=O)Nc2ccc([N+](=O)[O-])cc2Cl)c1 -4.44%, Cc1ccc(C(=O)CSc2nnnn2C(C)C)c(C)c1 -94.9%, CCN(CCO)c1nc(SC)nc2c1sc1nc(-c3ccco3)c3c(c12)CCC3 -28.5%, CSc1cc(-c2ccco2)oc1C(=O)c1ccco1 10.5%, CCCCOC(=O)CCc1c(C)n[nH]c1C 14.6%, CN1CCN(Cc2c(O)ccc3cc(Br)ccc23)CC1 23.8%, S=c1[nH]nc(-c2cc(-c3ccccc3)n[nH]2)n1/N=C/C(Br)=C/c1ccccc1 -108%, Cc1ccc(NC(=O)COC(=O)/C=C/c2ccc(Br)o2)cc1S(=O)(=O)N(C)C -28.6%, COc1ccc(-c2cc(CCCC(=O)NCCc3ccc(OC)cc3OC)no2)cc1 -34.9%, Cc1cc(C)c2c(NC(=O)C3CC3)nn(C)c2n1 9.49%, COc1ccc2c(c1)CCc1c(C(=O)N3CC4(C)CC3CC(C)(C)C4)noc1-2 (configuration not stated) -49.6%, CCOC(=S)SCC(=O)N1CCc2cc(OC)c(OC)cc2C1C1C(=O)CC(C)(C)CC1=O (configuration not stated) 5.12%, Cc1cc(=O)[nH]c(N/N=C/c2ccc(O)c(O)c2)n1 2.3%, CCC1CSC(Nc2ccc(C(=O)/C=C/c3cccc(C)c3)cc2)=N1 (configuration not stated) -95.4%, COc1ccc(NC(=O)C2CC(=O)NC(Nc3cccc(C)c3)=N2)cc1 (configuration not stated) -11.4%, CC1=C(/C=C/C(=O)O)C(C)(C)CCC1 9.15% [at 12 µM], N#CC(CO)(Cc1ccc(OC(F)F)cc1)c1nc2ccccc2[nH]1 (configuration not stated) -6.74%, COc1ccc(C(=O)Cn2c(C)nc([N+](=O)[O-])c2Br)cc1 -95%, CCC(C)C(=O)Nc1ncc2c(n1)CC(c1cccs1)CC2=O (configuration not stated) 0.061%, CCCc1[nH]nc2c1C(c1cc(OC)ccc1F)C(C#N)=C(N)O2 (configuration not stated) -18.2%, O=C(C[n+]1cccc(C(=O)Nc2ccccc2)c1)c1ccc([N+](=O)[O-])cc1 -7.73%, CCN(Cc1ccccc1)S(=O)(=O)c1cc(C(=O)NCC2CCCCC2)ccc1OC -52.4%, O=C(CC1C=Cc2ccccc2N1C(=O)c1ccccc1)c1ccccc1 (configuration not stated) -23%, O=C1CN(C(=O)c2ccc(Br)o2)C(c2ccc(F)cc2)c2cc(Cl)ccc2N1 (configuration not stated) -32.9%, Cc1ccccc1Cn1nc(C)c(NC(=O)C2c3ccccc3Oc3ccccc32)c1C -7.67%, Cc1cc(=O)oc2c(C)c(OC(C)C(=O)NCC(O)c3ccccc3)ccc12 (configuration not stated) 13.6%, CN1CCN(C(=O)c2ccc(Cn3cc(Cl)cn3)o2)CC1 -5.24%, COc1cc(NC(=S)NC(C)(C)C)c(OC)cc1Cl 6.75%, FC(F)(F)c1cnc(Sc2nc3nccc(-c4ccc(Cl)cc4)n3n2)c(Cl)c1 -82.3%, CCOc1ccc(C)cc1S(=O)(=O)NC1CCCCC1 -5.73%, O=C(NCc1nnc(SCc2ccccc2)n1-c1ccccc1)C12CC3CC(CC(C3)C1)C2 -21.2%, CCC(=NCc1ccc(Cl)c(Cl)c1)c1nc(-c2ccco2)oc1O -69.1%
